Sequences of proteins named here, by UniProt entry; tags and fusion partners are left off. A change or cut given only in a name is not applied to a line headed by its entry.
UniProt P32495: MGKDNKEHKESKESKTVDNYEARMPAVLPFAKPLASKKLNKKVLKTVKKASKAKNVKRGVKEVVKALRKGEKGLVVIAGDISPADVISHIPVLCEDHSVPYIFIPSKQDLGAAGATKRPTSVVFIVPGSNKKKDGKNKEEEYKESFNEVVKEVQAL

According to PMC8096250:

Biological target: Nhp2 K48-Cy3 S82W,K48PrK (Saccharomyces cerevisiae) (UniProt P32495)
Assay: smFRET
Conditions: omission of NCG; 5-amino-modified U (apical stem labeling site, U61); smFRET with immobilized 3'-biotin RNA; recombinant protein; protein details: His tag implied (Ni-NTA); label: Cy5, 3'-biotin

“GGGACUGCAAAAGAAGCGGCGAGGCAGCCCACAUCAAGUGGAACUACACAGACUUCCUUGUCGCGAUACUACGGUCCCAAGAGCAAUCCU [H5-Cy5 (snR81 5' hairpin)]”: no binding.

For at least one entry, the source does not settle the construct or the ends of the probe. A negative result means that nothing was seen under these conditions.
